Library screening results

The chains behind the UniProt entries cited, without tags or fusion partners.
UniProt E9BF75, entry or part of it: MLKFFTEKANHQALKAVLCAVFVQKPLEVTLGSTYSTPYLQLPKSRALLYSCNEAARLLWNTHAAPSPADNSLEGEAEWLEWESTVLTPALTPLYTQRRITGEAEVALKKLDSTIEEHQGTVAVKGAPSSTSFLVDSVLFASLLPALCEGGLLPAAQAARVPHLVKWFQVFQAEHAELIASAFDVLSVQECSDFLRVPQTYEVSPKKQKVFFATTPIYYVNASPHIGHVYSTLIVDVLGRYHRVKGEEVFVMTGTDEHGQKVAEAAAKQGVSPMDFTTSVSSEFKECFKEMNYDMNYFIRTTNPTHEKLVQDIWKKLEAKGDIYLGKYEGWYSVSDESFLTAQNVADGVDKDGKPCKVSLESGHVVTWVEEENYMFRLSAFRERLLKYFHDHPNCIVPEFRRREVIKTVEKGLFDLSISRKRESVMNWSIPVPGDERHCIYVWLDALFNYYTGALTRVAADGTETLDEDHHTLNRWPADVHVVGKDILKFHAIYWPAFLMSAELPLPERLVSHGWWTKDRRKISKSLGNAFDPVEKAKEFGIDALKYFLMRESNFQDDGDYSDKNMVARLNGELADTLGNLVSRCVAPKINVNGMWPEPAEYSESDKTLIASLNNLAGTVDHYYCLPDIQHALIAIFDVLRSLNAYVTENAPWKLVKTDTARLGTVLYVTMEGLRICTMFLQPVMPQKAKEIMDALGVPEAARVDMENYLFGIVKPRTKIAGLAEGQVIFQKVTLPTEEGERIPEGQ

Data taken from ChEMBL document CHEMBL3988442, “University of Dundee, Small-Polar-MMV Screening Library” (2021).

All values are in %. How 0% and 100% were set is not recorded. Most values in the screen are low, and negative values occur. The compounds are a random part of those screened.

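Methionyl-tRNA synthetase (putative), Leishmania donovani (UniProt E9BF75). Primary screen of methionyl-tRNA synthetase; the read-out is not stated. The test concentration is not given. The values are filed as inhibition. Size under these conditions: about 68,000 compounds, about 24 of them at 50% or above in at least one test.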

Compound	Inhibition
Cc1nccn1CCC1CCN(c2ncccn2)CC1	15.08
CCn1ccnc1CN1CCN(CC(O)c2ccc(OC)cc2)CC1 (configuration not stated)	6.316
Nc1ccc(C(=O)N2CCCC(c3nccn3Cc3cscn3)C2)cn1 (configuration not stated)	8.696
Cn1c(CN2CCOCC2)nnc1C1CCCN(C(=O)CCC2CC2)C1 (configuration not stated)	4.396
Cc1cc(C(=O)N2CCN(c3nc4c(C(C)C)cccc4s3)CC2)no1	13.82
O=C(COc1ccccc1Br)N1CCOc2ccncc21	12.64
CC(=O)Nc1cc(-c2cccc(F)c2F)n[nH]1	10.6
COc1ccc(CNC2CCCc3nc(N(C)C)ncc32)c(OC)c1 (configuration not stated)	8.616
CC(C)NC(=O)[C@H]1C[C@@H]2CN(C(=O)NCc3ccccc3)C[C@H]1O2	8.497
CC(OCc1ccccc1)C(=O)NCc1ccc(N(C)C)cc1 (configuration not stated)	16.57
Cc1cnn(CC2CCCN2C(=O)c2cccc(CC#N)c2)c1 (configuration not stated)	-1.408
COCc1ccc(CNC(=O)C2=NN(c3ccccc3)C(=O)CN2)cc1	9.294
Cc1cnc2c(c1NCc1ccccn1)c(=O)n(C)c(=O)n2C	12.36
COCCNC(=O)c1sc(Nc2ccc(Cl)cn2)nc1C	5.394
O=C(NCCCN1CCOCC1)c1ccc(-n2ccc3ccccc32)s1	10.14
Cn1cc(N2CCN(c3ccc(C#N)c(Cl)c3)CC2=O)cn1	13.6
CCn1ccnc1CN1C[C@@H](CN2CCCC2)[C@@H](CO)C1	11.23
CCc1ccc(NC(C(N)=O)c2ccc(F)cc2)cc1 (configuration not stated)	8.355
Cc1noc(Cl)c1CCC(=O)N1CCN(CC(C)(C)O)CC1	0
O=C(CCn1cccn1)N1CCC(c2nnc(-c3ccccn3)o2)CC1	5.938
CC(Cc1cccc(F)c1)C(=O)NS(=O)(=O)c1ccc2c(c1)OCCO2 (configuration not stated)	6.344
Cn1cc(CN2CCc3c(COCc4ccncc4)cncc3C2)cn1	10.22
COc1cccc(CN2CCCC3(CCN(C(=O)[C@H]4CCCO4)C3)C2)c1 (some centres not stated)	12.46
O=C(O)c1cccc(C2CCCN(S(=O)(=O)N3CCOCC3)C2)c1 (configuration not stated)	-2.847
CCN(CC1COc2ccccc2O1)C(=O)C1=NN(C)C(=O)CC1 (configuration not stated)	9.712
O=C(NCc1ccccc1)c1nn(C2CCS(=O)(=O)C2)c2c1CCCC2 (configuration not stated)	2.266
O=C(c1nsc(Cl)c1Cl)N1CCc2nc3sccc3c(=O)n2CC1	16.77
Cc1ccc(C(=O)N(C)Cc2ccc(Br)o2)c(=O)[nH]1	16.9
Cc1cccc(CN2CCC3(CC(C(=O)NCC(C)C)=NO3)C2)c1 (configuration not stated)	12.57
Cc1nn(C)c2ncc(NC(=O)N(C)Cc3cc(Cl)cn3C)cc12	7.945
O=C(NCC1CCC2(CCNCC2)O1)C1CC1 (configuration not stated)	6.667
Nc1nccc(N2CCNC(C(=O)NCc3ccccn3)C2)n1 (configuration not stated)	0.7371
COC(=O)c1ccc(NC(C)c2ccc3c(c2)CCC(=O)N3)nn1 (configuration not stated)	14.61
Cn1c(Cn2cccn2)nnc1C1CCN(Cc2ccccc2Cl)CC1	12.18
Cc1nc(C)c(CN2CCOC[C@H](Oc3cnccn3)C2)s1	2.932
O=C(NCCn1ccnc1C1CCOC1)c1cccnc1 (configuration not stated)	19.05
Fc1cccc(CN2C[C@@H]3CN(Cc4ccccn4)C[C@@H]3C2)c1	14.57
Cc1cc2cc(C(=O)N3CC[C@H](O)[C@]4(CCCO4)C3)ccc2o1	16.43
COc1ccc(Cc2ncc3c(n2)CN(C(=O)C(C)(C)OC)C3)cc1	-1.067
CCNC(=O)c1nnn(Cc2ccccc2)c1OC	12.03
CCC(Nc1nc(C2CCCC2)nc2c1cnn2C)c1ccncc1 (configuration not stated)	-3.846
O=C(NCCNc1ccccn1)NCC1CCS(=O)(=O)C1 (configuration not stated)	1.319
Cc1nn(C)c(C)c1CCC(=O)NCC1(C(N)=O)CCOCC1	17.14
O=C(c1ccccn1)N1CCN(c2cnnc(N3CCCC3)c2)CC1	13.76
COc1cc(OC)cc(-c2noc(CN)n2)c1	0.5013
Cc1cc(OCC(=O)N2CCCC(c3noc(C)n3)C2)no1 (configuration not stated)	4.196
O=C(c1cncc(N2CC[C@@]3(O)CCNC[C@H]3C2)n1)N1CCCC1	-2.338
Cc1cc(C)n(C2CN(Cc3noc(-c4ccccc4)n3)C2)n1	10.24
O=C(c1cc2ccccc2s1)N1CCC(C(=O)O)(n2cccn2)CC1	3.308
Cc1nnc([C@]23COC[C@H]2CN(Cc2nccs2)C3)o1	10.14
c1ccc(-n2nnnc2CNCc2ccc3c(c2)OCCO3)cc1	18.7
Cc1cnn(CCNCc2nc(COc3ccc(F)cc3)no2)c1	14.29
CCOC(=O)CNC(=O)NCc1cccn1Cc1ccc(F)cc1	5.248
Cc1nc(NS(=O)(=O)c2cc(Br)ccc2C)no1	7.453
CCn1cc(SCC(=O)N2CCCC(O)(CO)C2)c2ccccc21 (configuration not stated)	11.85
CC(=O)N1N=C(c2cccs2)OC1C(=O)NCc1ccc(C)o1 (configuration not stated)	12.5
O=C(c1ccncn1)N1CCC[C@]2(C[C@@H](OCc3ccccn3)CO2)C1	5.473
COC(=O)[C@@H](Nc1nc(C2CCCC2)nc2c1cnn2C)[C@@H](C)O	10.68
c1ccc(Oc2ccc(CNCC3CNc4ccnn4C3)cn2)cc1 (configuration not stated)	33.33
Cc1nn(C)cc1CN1CCN(CC2(c3ccccc3)CC2)CC1	17.19
CN(C)C(=O)CO[C@H]1CN(Cc2nccs2)[C@@H]2COC[C@H]12	16.1
CCCN(Cc1ccc(C(=O)NCC2COCCO2)c(=O)[nH]1)C1CC1 (configuration not stated)	6.774
COCC(=O)N1CCC2(COCc3cnc(N4CCOCC4)nc32)C1 (configuration not stated)	9.95
O=C(NCc1cc[nH]n1)NCC(c1ccccc1Cl)N1CCCC1 (configuration not stated)	11.52
CN(CCc1ccccn1)[C@@H]1CCN(c2cccc(C#N)n2)C[C@H]1O	14.78
CCOc1ncccc1NC(=O)N1CCN(c2ccc(O)cc2)CC1	16.83
C[C@@H]1CN(S(=O)(=O)c2ccc(F)cc2F)C[C@]1(C)O	2.799
CCCS(=O)(=O)N[C@H]1CN(c2ncccc2C(N)=O)C[C@@H]1C(C)C	3.621
CC(C)N(C)S(=O)(=O)N1CCN(Cc2ccco2)CC1	1.344
CSC(C)Cc1c(-c2ccccc2)ncn1CCCNc1cccnc1 (configuration not stated)	4.511
O=C(NCCN1CCOCC1)Nc1cnc2cc(Cl)ccc2c1O	7.292
CCCS(=O)(=O)N1CCC2(CC1)CC(=O)N(CCCc1ccccc1)C2	12.03
O=C(Nc1ccccc1F)C1=NOC2(CCNCC2)C1	17.52
O=C(CN1CCCC1Cn1cncn1)Nc1ccnn1C1CCCC1 (configuration not stated)	19.55
Cc1ccc(N2CC3(COCCN(Cc4ccccn4)C3)OCC2=O)s1 (configuration not stated)	1.418
Cc1cnn(CC2CCCCN2C(=O)c2ccc(CN(C)C)cc2)c1 (configuration not stated)	14.36
CC(C)c1nn(C)c(Cl)c1CNCc1ccc(N(C)C)nc1	22.95
CC(C)c1ccc(NC(=O)Cn2cc(I)cn2)cc1	15.16
O=C1N(c2cccc(Cl)c2)Cc2nc(=O)[nH]n21	8.052
CN(C)c1ncnc2c1CCN(CC1CCCC1)CC2	16.5
COCCN(C(=O)c1ccsc1)c1ccc(C#N)cc1	13.71
CC(C)(C(=O)NCc1n[nH]c(=O)[nH]1)c1ccc(F)cc1	10.68
CC(C)c1nc(C2CCCN2Cc2ccno2)no1 (configuration not stated)	15.79
COc1nn(C)cc1C(=O)N1CCC(C)CC1	6.843
COCc1nc2n(n1)CCCC2Nc1nc(C(C)C)ns1 (configuration not stated)	17.6
CCOc1cccc(COC(=O)c2scnc2C)n1	10.21
Cc1nccn1CCC1CCCCN1C(=O)c1ccc2nonc2c1 (configuration not stated)	11.17
O=C(NC(Cc1ccsc1)c1nccs1)C1CCOCC1 (configuration not stated)	15.41
O=C(NC1CC1)N1CC[C@H]2[C@H]1CCN2c1nncs1	12.68
COc1ccnc(CNc2nc(C)nc(C)c2C)c1	19.64
CCN(CC)S(=O)(=O)N1CCC(c2nccn2Cc2ccccn2)CC1	5.455
COCCN(C)C(=O)c1ccccc1-n1cccn1	-1.928
CCCN1CCN(C(=O)c2cnn(-c3ccccc3F)c2)CC1	5.836
Cn1cc(CN2CCCC(c3nccnc3-c3cccc(F)c3)C2)cn1 (configuration not stated)	14.56

For reference, 9 entries once more:

Compound,Inhibition
CCCS(=O)(=O)N[C@H]1CN(c2ncccc2C(N)=O)C[C@@H]1C(C)C,3.621
COCCN(C(=O)c1ccsc1)c1ccc(C#N)cc1,13.71
COCc1ccc(CNC(=O)C2=NN(c3ccccc3)C(=O)CN2)cc1,9.294
O=C(c1ccncn1)N1CCC[C@]2(C[C@@H](OCc3ccccn3)CO2)C1,5.473
CCC(Nc1nc(C2CCCC2)nc2c1cnn2C)c1ccncc1 (configuration not stated),-3.846
CCOc1cccc(COC(=O)c2scnc2C)n1,10.21
O=C(c1nsc(Cl)c1Cl)N1CCc2nc3sccc3c(=O)n2CC1,16.77
CCN(CC)S(=O)(=O)N1CCC(c2nccn2Cc2ccccn2)CC1,5.455
CN(C)c1ncnc2c1CCN(CC1CCCC1)CC2,16.5